Data published in article PMC7619497.
No constants are given. Whether binding was seen depends on the method and setting. Binding seen in cells or lysates may run through a third protein. Here binding means that the protein was enriched with, or labelled near, the bait; the list need not be complete. Where a sequence is shown, tags or fusion partners need not be part of it.

The chains behind the UniProt entries cited, without tags or fusion partners.
UniProt P43694: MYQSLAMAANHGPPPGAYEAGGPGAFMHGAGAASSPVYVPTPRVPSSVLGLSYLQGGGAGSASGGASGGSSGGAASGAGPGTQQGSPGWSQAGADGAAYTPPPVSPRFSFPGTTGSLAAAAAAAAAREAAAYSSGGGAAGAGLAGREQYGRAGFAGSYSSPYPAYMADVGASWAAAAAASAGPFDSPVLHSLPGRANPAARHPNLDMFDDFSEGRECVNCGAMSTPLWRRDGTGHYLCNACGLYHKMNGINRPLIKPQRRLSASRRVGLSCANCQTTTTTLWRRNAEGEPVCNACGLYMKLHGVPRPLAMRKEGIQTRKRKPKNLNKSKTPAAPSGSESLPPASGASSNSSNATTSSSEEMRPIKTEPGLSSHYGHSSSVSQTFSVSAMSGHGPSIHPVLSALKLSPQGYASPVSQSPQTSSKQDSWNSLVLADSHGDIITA
UniProt Q99081: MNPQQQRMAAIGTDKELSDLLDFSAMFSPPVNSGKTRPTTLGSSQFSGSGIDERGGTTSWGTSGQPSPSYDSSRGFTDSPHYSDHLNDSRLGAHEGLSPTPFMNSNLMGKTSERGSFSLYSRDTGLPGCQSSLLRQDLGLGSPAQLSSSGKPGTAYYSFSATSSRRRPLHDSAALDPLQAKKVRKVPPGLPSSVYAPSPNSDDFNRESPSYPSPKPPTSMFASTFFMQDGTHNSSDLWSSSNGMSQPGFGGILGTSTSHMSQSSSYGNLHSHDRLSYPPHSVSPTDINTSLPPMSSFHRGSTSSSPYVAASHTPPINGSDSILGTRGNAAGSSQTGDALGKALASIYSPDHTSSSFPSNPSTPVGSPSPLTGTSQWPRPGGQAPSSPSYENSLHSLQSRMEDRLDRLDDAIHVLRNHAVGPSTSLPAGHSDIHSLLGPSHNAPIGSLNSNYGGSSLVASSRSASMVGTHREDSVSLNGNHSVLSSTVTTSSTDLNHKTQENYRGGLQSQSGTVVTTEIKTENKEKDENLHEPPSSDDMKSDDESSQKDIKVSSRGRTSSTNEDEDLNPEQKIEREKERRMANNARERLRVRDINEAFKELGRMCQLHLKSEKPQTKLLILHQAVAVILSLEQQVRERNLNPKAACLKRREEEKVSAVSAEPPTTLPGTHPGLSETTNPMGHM
UniProt Q13547: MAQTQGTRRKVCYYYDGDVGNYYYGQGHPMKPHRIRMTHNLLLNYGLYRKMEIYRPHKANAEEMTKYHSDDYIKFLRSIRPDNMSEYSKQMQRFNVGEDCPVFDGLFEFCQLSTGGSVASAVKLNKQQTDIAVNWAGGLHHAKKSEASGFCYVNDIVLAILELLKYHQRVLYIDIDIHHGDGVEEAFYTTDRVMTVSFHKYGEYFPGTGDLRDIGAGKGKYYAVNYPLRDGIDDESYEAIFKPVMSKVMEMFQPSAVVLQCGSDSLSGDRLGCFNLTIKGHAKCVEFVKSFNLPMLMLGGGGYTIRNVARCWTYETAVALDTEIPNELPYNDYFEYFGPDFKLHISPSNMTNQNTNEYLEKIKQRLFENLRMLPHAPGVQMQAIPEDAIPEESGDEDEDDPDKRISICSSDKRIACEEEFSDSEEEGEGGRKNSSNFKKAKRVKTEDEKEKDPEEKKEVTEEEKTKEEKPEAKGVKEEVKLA
UniProt Q7Z6Z7: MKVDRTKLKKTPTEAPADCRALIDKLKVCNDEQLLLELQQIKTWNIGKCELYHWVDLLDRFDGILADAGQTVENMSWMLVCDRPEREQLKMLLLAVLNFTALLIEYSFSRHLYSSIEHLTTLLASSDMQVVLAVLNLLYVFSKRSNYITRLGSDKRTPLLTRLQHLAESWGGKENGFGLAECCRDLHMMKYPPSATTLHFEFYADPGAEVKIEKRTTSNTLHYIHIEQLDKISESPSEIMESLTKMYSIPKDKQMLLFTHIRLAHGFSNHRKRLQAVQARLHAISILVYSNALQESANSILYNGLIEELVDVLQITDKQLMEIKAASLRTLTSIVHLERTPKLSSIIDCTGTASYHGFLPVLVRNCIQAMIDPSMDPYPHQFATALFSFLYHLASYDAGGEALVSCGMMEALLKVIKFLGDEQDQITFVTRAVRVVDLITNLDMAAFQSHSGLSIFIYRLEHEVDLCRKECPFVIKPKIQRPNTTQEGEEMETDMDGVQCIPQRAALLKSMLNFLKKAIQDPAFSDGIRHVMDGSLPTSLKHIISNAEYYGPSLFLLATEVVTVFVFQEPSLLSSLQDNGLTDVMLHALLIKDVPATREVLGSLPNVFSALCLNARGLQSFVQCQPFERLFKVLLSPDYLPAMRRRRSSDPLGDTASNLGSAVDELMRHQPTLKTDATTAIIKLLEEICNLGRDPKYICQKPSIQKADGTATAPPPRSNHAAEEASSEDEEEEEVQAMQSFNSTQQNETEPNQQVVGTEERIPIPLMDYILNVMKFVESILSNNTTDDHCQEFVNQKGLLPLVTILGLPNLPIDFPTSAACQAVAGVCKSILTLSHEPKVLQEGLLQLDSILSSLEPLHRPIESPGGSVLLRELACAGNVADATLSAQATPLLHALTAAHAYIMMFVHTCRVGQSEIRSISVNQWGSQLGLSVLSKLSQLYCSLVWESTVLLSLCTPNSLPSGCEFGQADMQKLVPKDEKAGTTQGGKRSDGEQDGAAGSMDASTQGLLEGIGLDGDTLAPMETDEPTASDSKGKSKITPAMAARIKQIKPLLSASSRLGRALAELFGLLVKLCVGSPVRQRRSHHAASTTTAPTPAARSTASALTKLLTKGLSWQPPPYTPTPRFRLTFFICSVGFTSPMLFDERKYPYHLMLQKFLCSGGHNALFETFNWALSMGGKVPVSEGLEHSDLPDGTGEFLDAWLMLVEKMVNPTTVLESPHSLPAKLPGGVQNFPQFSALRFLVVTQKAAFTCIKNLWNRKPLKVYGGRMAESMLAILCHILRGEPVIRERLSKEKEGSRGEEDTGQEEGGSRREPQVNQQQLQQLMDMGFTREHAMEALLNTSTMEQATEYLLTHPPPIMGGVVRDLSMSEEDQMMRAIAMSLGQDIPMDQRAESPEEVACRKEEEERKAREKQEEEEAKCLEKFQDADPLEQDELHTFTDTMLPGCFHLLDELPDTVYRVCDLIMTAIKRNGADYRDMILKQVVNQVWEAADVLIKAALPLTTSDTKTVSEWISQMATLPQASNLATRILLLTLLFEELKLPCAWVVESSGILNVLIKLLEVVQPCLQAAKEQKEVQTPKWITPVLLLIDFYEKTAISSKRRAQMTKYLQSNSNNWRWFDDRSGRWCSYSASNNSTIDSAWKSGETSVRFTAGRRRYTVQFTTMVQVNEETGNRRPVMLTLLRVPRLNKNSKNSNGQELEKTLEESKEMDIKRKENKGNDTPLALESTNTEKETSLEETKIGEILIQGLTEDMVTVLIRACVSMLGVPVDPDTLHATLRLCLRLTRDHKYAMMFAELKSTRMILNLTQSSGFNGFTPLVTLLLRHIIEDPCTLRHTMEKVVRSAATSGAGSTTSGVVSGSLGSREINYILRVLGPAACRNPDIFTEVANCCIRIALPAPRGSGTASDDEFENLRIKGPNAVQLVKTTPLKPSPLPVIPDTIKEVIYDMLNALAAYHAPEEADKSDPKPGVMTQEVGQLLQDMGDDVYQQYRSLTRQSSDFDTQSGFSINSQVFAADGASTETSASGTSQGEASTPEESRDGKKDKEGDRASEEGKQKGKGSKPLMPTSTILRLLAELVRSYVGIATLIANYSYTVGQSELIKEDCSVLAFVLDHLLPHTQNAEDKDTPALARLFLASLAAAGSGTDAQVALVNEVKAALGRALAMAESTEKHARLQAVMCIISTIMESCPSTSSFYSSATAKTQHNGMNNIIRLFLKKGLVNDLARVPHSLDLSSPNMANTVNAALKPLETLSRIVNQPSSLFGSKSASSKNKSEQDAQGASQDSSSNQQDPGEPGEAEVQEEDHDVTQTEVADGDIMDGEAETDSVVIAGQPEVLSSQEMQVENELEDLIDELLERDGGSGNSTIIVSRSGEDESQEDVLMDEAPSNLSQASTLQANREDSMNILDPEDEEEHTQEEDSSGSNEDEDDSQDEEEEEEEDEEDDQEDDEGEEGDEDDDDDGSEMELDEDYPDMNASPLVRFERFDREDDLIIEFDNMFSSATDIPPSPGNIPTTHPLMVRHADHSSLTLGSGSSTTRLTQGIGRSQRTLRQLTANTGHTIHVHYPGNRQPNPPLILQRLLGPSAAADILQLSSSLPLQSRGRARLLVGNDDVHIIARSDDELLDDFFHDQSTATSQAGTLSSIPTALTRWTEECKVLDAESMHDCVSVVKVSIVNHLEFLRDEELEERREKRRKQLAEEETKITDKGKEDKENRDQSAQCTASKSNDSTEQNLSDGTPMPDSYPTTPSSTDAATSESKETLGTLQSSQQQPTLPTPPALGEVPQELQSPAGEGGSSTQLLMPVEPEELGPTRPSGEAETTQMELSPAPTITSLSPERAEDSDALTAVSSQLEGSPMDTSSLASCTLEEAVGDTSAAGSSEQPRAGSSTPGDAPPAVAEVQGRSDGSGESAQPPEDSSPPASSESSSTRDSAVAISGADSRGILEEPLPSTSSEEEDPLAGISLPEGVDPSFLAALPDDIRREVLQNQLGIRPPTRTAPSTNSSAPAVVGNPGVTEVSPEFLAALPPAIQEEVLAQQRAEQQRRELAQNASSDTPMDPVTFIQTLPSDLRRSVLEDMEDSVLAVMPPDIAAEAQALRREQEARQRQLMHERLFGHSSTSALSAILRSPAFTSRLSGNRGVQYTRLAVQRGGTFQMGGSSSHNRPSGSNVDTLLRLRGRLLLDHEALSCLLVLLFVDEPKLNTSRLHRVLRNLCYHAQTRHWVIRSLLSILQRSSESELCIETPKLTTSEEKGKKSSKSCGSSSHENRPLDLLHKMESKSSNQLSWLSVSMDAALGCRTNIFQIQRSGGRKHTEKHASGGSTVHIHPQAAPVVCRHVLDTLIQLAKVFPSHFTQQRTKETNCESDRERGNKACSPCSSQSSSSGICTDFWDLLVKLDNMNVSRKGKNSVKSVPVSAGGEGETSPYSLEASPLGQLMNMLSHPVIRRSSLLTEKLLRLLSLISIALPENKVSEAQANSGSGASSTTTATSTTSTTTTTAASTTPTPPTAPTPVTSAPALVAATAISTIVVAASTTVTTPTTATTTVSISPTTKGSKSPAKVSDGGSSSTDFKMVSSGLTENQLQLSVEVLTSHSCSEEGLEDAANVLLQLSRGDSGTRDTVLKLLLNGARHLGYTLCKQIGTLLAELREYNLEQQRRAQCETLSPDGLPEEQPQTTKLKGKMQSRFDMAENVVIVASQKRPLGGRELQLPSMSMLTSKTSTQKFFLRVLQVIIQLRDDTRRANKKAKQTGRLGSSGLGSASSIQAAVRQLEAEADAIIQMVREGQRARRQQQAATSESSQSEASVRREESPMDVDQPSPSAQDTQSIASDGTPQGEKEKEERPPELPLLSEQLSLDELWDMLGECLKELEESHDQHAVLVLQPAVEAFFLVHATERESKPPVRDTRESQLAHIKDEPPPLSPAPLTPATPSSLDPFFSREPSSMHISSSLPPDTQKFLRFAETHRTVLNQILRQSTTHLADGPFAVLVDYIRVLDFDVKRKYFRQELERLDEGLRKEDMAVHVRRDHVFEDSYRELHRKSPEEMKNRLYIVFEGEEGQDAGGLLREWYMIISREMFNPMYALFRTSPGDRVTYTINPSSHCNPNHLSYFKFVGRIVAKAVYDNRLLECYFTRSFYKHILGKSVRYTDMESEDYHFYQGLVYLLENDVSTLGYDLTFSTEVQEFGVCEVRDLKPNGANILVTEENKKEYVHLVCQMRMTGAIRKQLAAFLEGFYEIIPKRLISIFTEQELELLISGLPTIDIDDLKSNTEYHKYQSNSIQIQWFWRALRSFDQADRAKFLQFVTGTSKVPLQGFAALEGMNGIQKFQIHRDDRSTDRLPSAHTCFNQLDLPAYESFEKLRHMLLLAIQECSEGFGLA
UniProt P50750: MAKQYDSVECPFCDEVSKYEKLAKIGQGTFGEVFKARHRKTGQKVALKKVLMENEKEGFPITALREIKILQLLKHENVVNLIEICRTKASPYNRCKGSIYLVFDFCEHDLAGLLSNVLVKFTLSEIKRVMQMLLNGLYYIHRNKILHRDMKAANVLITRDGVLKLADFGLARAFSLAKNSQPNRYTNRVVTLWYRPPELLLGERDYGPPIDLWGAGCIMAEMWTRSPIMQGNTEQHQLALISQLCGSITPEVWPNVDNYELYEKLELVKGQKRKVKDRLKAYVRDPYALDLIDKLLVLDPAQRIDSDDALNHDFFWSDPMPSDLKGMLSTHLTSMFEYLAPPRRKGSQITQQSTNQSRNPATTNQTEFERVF

T1: Achaete-scute homolog 1 (ASCL1), untagged wild type (human) (UniProt P50553)
T1 sequence: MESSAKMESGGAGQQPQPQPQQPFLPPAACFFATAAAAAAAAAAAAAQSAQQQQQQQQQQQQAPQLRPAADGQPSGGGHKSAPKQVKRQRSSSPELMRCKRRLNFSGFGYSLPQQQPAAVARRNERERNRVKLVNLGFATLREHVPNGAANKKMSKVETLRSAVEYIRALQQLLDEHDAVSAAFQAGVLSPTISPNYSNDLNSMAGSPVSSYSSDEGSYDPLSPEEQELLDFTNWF

B1: SATB1 (protein, UniProt Q01826 1-763)
chain: MDHLNEATQGKEHSEMSNNVSDPKGPPAKIARLEQNGSPLGRGRLGSTGAKMQGVPLKHSGHLMKTNLRKGTMLPVFCVVEHYENAIEYDCKEEHAEFVLVRKDMLFNQLIEMALLSLGYSHSSAAQAKGLIQVGKWNPVPLSYVTDAPDATVADMLQDVYHVVTLKIQLHSCPKLEDLPPEQWSHTTVRNALKDLLKDMNQSSLAKECPLSQSMISSIVNSTYYANVSAAKCQEFGRWYKHFKKTKDMMVEMDSLSELSQQGANHVNFGQQPVPGNTAEQPPSPAQLSHGSQPSVRTPLPNLHPGLVSTPISPQLVNQQLVMAQLLNQQYAVNRLLAQQSLNQQYLNHPPPVSRSMNKPLEQQVSTNTEVSSEIYQWVRDELKRAGISQAVFARVAFNRTQGLLSEILRKEEDPKTASQSLLVNLRAMQNFLQLPEAERDRIYQDERERSLNAASAMGPAPLISTPPSRPPQVKTATIATERNGKPENNTMNINASIYDEIQQEMKRAKVSQALFAKVAATKSQGWLCELLRWKEDPSPENRTLWENLSMIRRFLSLPQPERDAIYEQESNAVHHHGDRPPHIIHVPAEQIQQQQQQQQQQQQQQQAPPPPQPQQQPQTGPRLPPRQPTVASPAESDEENRQKTRPRTKISVEALGILQSFIQDVGLYPDEEAIQTLSAQLDLPKYTIIKFFQNQRYYLKHHGKLKDNSGLEVDVAEYKEEELLKDLEESVQDKNTNTLFSVKLEEELSVEGNTDINTDLKD
B2: Cyclin F (protein, UniProt P41002 1-786)
chain: MGSGGVVHCRCAKCFCYPTKRRIRRRPRNLTILSLPEDVLFHILKWLSVEDILAVRAVHSQLKDLVDNHASVWACASFQELWPSPGNLKLFERAAEKGNFEAAVKLGIAYLYNEGLSVSDEARAEVNGLKASRFFSLAERLNVGAAPFIWLFIRPPWSVSGSCCKAVVHESLRAECQLQRTHKASILHCLGRVLSLFEDEEKQQQAHDLFEEAAHQGCLTSSYLLWESDRRTDVSDPGRCLHSFRKLRDYAAKGCWEAQLSLAKACANANQLGLEVRASSEIVCQLFQASQAVSKQQVFSVQKGLNDTMRYILIDWLVEVATMKDFTSLCLHLTVECVDRYLRRRLVPRYRLQLLGIACMVICTRFISKEILTIREAVWLTDNTYKYEDLVRMMGEIVSALEGKIRVPTVVDYKEVLLTLVPVELRTQHLCSFLCELSLLHTSLSAYAPARLAAAALLLARLTHGQTQPWTTQLWDLTGFSYEDLIPCVLSLHKKCFHDDAPKDYRQVSLTAVKQRFEDKRYGEISQEEVLSYSQLCAALGVTQDSPDPPTFLSTGEIHAFLSSPSGRRTKRKRENSLQEDRGSFVTTPTAELSSQEETLLGSFLDWSLDCCSGYEGDQESEGEKEGDVTAPSGILDVTVVYLNPEQHCCQESSDEEACPEDKGPQDPQALALDTQIPATPGPKPLVRTSREPGKDVTTSGYSSVSTASPTSSVDGGLGALPQPTSVLSLDSDSHTQPCHHQARKSCLQCRPPSPPESSVPQQQVKRINLCIHSEEEDMNLGLVRL
B3: HAND1 (protein, UniProt O96004 1-215)
chain: MNLVGSYAHHHHHHHPHPAHPMLHEPFLFGPASRCHQERPYFQSWLLSPADAAPDFPAGGPPPAAAAAATAYGPDARPGQSPGRLEALGGRLGRRKGSGPKKERRRTESINSAFAELRECIPNVPADTKLSKIKTLRLATSYIAYLMDVLAKDAQSGDPEAFKAELKKADGGRESKRKRELQQHEGFPPALGPVEKRIKGRTGWPQQVWALELNQ
B4: ARID3B (protein, UniProt Q8IVW6 1-561)
chain: MEPLQQQQQQQQQQQKQPHLAPLQMDAREKQGQQMREAQFLYAQKLVTQPTLLSATAGRPSGSTPLGPLARVPPTAAVAQVFERGNMNSEPEEEDGGLEDEDGDDEVAEVAEKETQAASKYFHVQKVARQDPRVAPMSNLLPAPGLPPHGQQAKEDHTKDASKASPSVSTAGQPNWNLDEQLKQNGGLAWSDDADGGRGREISRDFAKLYELDGDPERKEFLDDLFVFMQKRGTPINRIPIMAKQILDLYMLYKLVTEKGGLVEIINKKIWREITKGLNLPTSITSAAFTLRTQYMKYLYAYECEKKALSSPAELQAAIDGNRREGRRPSYSSSLFGYSPAAATAAAAAGAPALLSPPKIRFPILGLGSSSGTNTSSPRISPATTLRKGDGAPVTTVPVPNRLAVPVTLASQQAGTRTAALEQLRERLESGEPAEKKASRLSEEEQRLVQQAFQRNFFSMARQLPMKIRINGRAEDRAEASAAALNLTTSSIGSINMSVDIDGTTYAGVLFAQKPVVHLITGSAPQSLGSSASSSSSSHCSPSPTSSRGTPSAEPSTSWSL
B5: TFAP4 (protein, UniProt Q01664 1-338)
chain: MEYFMVPTQKVPSLQHFRKTEKEVIGGLCSLANIPLTPETQRDQERRIRREIANSNERRRMQSINAGFQSLKTLIPHTDGEKLSKAAILQQTAEYIFSLEQEKTRLLQQNTQLKRFIQELSGSSPKRRRAEDKDEGIGSPDIWEDEKAEDLRREMIELRQQLDKERSVRMMLEEQVRSLEAHMYPEKLKVIAQQVQLQQQQEQVRLLHQEKLEREQQQLRTQLLPPPAPTHHPTVIVPAPPPPPSHHINVVTMGPSSVINSVSTSRQNLDTIVQAIQHIEGTQEKQELEEEQRRAVIVKPVRSCPEAPTSDTASDSEASDSDAMDQSREEPSGDGELP

molecular target: T1, Achaete-scute homolog 1 (ASCL1), untagged wild type (human); assay: affinity purification with mass spectrometry; qPLEX-RIME: IMR^ASCL1 and BE^ASCL1 cells, 1 ug/mL doxycycline 24 h; double cross-linking (2 mM DSG 20 min, 1% formaldehyde 10 min); sonicated chromatin; ASCL1 immunoprecipitation on antibody-conjugated beads overnight at 4 C against an IgG control; 10 RIPA washes; TMT-labelled peptides, MS3

binding, binds:
B1
B2
B3
B4
B5

molecular target: T1, Achaete-scute homolog 1 (ASCL1), untagged wild type (human); assay: as above; remark: another data set of the same source

binding, binds:
TCF4 (from UniProt P15884 1-667)
BCL11B (from UniProt Q9C0K0 1-894)
GATA4 (from UniProt P43694 1-442)
TCF12 (from UniProt Q99081 1-682)
Cyclin A2 (from UniProt P20248 1-432)
HDAC1 (from UniProt Q13547 1-482)
PLK1 (from UniProt P53350 1-603)
HUWE1 (from UniProt Q7Z6Z7 1-4374)
CDK9 (from UniProt P50750 1-372)
